The other results are listed elsewhere or left out.
compound: C1=CC=C(C=C1)[C@H](COC2=CC3=C(C=C2)NC(=O)N3)NC(=O)C4=CC=CN(C4=O)CC5=CC(=C(C=C5)F)F; test: log2 fold change, soluble protein after heating vs DMSO (PISA); higher = thermal stabilisation; K562 cells, 10 uM, 30 min; active = over 0.2 and 3.5 SD of the protein, either way, in both replicates (recomputed)
Method in brief: (§1)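 Values are thermal stability changes relative to control samples and are taken from duplicates. They are stated as log2 fold changes. Before quantification by TMTpro 16plex LC-MS/MS with equalised channel sums, K562 cells at 2×10^6 cells/mL were treated with 10 μM compound for 30 min, heated in aliquots for 3 min across 48°C-58°C, pooled, extracted in PBS with 0.5% NP-40 at 4°C, and centrifuged at 21,000xg for 90 min to give the soluble supernatant.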

By UniProt entry, the sequences of proteins in these tests, tags left out. Where a name states a change or a piece, a line headed by the entry shows the natural chain unless it says otherwise.
UniProt P53701: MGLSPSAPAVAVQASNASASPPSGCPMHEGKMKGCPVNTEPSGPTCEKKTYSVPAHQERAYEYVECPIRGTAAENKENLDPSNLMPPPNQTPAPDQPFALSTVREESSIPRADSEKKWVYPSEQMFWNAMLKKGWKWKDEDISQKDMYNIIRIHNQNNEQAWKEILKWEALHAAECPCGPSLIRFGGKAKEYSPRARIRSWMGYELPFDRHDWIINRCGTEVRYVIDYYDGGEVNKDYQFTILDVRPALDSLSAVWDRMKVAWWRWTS
UniProt Q9NRV9: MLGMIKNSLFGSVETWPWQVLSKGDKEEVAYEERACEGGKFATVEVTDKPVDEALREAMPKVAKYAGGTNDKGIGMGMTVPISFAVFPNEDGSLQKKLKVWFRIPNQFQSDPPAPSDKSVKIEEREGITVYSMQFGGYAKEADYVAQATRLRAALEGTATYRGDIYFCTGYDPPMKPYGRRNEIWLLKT
UniProt Q9P2D3: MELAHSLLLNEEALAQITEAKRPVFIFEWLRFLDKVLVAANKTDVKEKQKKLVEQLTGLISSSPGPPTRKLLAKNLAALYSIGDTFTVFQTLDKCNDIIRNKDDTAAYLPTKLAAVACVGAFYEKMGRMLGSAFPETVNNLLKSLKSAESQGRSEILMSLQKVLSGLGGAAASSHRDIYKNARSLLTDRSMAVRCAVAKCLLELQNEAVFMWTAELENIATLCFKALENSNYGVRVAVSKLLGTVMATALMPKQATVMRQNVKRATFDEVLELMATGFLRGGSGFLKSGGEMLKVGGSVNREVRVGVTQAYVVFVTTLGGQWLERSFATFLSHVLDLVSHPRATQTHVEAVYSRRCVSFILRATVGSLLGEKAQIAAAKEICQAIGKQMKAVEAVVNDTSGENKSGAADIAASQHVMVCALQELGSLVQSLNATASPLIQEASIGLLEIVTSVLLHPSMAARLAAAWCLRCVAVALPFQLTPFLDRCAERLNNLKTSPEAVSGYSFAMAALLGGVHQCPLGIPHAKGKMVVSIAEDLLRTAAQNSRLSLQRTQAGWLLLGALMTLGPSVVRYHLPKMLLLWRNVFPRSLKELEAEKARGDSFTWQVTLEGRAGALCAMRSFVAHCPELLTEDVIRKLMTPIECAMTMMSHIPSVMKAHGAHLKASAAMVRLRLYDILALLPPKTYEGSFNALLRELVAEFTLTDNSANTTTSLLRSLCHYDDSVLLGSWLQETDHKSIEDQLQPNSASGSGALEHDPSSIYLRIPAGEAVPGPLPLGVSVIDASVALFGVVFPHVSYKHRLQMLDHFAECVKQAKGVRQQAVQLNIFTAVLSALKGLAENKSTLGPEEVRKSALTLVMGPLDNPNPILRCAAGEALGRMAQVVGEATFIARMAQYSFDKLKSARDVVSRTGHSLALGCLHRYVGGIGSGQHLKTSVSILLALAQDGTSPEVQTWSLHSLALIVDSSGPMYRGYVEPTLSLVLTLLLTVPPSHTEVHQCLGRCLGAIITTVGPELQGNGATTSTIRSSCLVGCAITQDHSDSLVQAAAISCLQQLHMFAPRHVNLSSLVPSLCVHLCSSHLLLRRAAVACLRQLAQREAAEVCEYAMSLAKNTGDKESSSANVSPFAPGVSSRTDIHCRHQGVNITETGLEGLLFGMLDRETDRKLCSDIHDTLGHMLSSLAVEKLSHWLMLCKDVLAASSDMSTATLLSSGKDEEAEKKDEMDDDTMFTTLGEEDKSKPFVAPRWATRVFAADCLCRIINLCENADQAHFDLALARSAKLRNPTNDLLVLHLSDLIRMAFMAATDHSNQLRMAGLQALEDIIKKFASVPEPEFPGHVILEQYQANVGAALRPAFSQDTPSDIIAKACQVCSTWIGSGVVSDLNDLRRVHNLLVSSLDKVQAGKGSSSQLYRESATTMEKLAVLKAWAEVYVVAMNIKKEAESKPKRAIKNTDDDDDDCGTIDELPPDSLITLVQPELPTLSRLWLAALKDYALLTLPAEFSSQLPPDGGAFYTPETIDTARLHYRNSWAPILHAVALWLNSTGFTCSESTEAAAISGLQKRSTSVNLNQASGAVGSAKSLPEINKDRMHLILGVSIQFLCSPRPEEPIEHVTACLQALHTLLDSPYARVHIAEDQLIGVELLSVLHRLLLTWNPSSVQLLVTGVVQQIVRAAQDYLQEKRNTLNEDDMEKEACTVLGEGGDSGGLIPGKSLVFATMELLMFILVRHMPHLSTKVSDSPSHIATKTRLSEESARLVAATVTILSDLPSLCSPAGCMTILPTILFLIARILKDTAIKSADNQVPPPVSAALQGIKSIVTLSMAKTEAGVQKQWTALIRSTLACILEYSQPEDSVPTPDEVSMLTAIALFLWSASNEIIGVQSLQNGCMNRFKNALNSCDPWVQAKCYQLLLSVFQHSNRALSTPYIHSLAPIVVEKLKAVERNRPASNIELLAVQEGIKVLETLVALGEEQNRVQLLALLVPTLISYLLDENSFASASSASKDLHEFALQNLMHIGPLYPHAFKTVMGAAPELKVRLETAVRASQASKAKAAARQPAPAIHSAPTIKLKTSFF
UniProt Q9Y2Q3: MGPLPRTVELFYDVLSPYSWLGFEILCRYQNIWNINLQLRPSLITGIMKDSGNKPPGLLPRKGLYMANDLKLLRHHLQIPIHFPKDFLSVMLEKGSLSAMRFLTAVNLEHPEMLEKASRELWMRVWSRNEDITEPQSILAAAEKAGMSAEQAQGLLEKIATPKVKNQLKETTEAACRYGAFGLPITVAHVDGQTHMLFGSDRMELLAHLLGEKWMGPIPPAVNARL
UniProt P69905, whole entry, looked up: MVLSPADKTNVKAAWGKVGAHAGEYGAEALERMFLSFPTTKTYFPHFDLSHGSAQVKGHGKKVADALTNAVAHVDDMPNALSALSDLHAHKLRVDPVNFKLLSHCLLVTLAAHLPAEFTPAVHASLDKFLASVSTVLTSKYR
UniProt P06396, whole entry, looked up: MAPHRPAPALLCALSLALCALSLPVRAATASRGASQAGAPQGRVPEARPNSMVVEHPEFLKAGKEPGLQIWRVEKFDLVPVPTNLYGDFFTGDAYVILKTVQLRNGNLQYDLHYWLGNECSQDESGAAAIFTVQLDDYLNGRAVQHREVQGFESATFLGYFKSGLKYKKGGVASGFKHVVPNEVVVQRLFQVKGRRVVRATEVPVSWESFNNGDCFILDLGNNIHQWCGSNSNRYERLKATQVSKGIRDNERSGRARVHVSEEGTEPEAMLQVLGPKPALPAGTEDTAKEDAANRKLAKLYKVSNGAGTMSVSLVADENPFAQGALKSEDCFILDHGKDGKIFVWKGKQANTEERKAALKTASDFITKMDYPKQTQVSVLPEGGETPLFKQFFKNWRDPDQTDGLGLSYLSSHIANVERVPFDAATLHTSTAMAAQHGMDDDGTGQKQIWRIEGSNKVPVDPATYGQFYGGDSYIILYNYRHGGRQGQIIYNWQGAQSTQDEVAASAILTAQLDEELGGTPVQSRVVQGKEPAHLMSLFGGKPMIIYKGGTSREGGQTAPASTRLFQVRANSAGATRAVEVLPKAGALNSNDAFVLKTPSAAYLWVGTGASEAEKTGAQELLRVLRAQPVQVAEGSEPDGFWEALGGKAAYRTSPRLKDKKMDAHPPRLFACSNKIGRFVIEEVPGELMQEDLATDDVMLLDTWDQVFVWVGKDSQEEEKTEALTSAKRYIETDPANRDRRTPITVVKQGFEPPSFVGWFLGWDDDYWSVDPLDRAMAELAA
UniProt Q8NG08: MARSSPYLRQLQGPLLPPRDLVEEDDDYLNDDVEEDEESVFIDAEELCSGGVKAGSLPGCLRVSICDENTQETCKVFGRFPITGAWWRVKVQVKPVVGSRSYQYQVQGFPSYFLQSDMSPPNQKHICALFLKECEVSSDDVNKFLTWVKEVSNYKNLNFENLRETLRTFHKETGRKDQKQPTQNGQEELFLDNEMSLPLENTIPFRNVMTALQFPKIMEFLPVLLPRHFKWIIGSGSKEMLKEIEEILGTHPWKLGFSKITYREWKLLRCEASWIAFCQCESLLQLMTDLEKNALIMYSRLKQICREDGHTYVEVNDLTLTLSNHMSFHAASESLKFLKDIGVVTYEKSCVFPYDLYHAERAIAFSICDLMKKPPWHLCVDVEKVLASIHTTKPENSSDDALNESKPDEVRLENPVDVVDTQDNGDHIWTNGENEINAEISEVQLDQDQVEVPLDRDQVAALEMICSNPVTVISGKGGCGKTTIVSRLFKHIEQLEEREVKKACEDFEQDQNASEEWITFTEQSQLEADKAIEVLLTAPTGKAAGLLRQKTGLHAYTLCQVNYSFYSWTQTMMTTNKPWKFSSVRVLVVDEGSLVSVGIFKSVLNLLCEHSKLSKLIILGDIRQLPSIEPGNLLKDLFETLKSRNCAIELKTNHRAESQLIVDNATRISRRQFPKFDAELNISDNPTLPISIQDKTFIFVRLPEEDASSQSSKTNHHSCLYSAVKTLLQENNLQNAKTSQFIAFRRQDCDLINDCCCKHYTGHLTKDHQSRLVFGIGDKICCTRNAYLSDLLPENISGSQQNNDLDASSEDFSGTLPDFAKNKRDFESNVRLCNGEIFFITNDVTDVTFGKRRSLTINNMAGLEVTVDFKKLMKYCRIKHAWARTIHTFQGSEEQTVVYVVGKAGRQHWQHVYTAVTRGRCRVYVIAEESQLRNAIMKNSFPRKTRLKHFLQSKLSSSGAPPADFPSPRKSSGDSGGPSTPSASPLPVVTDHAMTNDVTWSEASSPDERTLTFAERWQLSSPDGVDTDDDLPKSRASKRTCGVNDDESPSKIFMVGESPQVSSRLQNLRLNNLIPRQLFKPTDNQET
UniProt Q9Y5Q8: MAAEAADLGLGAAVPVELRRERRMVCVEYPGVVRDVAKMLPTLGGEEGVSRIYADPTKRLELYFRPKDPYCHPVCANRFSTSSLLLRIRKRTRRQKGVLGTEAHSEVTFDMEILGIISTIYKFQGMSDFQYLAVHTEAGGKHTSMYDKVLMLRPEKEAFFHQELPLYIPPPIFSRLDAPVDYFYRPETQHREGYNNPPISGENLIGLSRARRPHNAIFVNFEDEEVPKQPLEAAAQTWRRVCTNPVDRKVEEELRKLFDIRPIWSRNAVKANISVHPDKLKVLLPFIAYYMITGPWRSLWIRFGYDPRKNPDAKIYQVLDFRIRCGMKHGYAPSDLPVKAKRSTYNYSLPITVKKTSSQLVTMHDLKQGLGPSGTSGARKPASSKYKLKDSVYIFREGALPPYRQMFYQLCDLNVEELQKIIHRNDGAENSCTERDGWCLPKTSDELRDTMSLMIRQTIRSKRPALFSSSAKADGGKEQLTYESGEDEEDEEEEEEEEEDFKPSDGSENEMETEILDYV
UniProt P04921: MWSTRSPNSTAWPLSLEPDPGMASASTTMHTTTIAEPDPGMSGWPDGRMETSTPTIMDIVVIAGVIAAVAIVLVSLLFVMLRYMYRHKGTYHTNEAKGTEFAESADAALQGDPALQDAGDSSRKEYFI
UniProt P15170, whole entry, looked up: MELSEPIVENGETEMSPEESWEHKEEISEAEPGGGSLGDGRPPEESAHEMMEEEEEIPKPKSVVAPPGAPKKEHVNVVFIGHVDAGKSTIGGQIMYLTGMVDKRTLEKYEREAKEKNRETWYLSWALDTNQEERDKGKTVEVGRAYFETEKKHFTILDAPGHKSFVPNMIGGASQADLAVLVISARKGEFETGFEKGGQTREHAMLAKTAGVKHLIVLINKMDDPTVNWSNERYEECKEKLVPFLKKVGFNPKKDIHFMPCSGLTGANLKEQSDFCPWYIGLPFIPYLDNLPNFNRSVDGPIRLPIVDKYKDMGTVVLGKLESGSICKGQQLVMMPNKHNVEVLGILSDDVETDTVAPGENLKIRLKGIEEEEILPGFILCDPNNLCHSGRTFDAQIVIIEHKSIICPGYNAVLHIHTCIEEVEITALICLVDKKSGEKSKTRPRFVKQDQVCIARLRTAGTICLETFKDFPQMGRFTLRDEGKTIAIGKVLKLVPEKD
UniProt P07686: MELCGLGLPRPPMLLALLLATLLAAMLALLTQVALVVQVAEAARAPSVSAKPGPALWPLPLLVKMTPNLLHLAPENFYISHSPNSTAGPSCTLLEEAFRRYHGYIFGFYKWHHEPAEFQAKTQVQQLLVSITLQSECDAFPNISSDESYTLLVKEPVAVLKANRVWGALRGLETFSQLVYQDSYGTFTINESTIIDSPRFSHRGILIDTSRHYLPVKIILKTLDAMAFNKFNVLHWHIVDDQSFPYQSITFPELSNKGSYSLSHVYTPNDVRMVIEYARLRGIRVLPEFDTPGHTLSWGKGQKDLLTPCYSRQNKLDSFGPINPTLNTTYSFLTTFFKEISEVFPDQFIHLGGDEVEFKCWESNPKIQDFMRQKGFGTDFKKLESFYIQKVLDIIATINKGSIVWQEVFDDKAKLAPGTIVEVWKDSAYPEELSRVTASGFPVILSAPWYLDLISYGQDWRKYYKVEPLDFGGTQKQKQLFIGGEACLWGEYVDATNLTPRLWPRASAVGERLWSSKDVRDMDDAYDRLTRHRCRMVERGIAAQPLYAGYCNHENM

Row | Target | log2 fold change
1 | HADHA (UniProt P40939) | inactive: -0.218
2 | HDAC2 (UniProt Q92769) | inactive: 0.022
3 | GTPBP4 (UniProt Q9BZE4) | inactive: -0.045
4 | HAGH (UniProt Q16775) | inactive: 0.015
5 | GTPBP1 (UniProt O00178) | inactive: 0.002
6 | HCCS (UniProt P53701) | inactive: 0.022
7 | HEBP1 (UniProt Q9NRV9) | inactive: 0.27
8 | HERC4 (UniProt Q5GLZ8) | inactive: -0.005
9 | HABP4 (UniProt Q5JVS0) | inactive: -0.002
10 | HEATR5B (UniProt Q9P2D3) | inactive: -0.029
11 | HADHB (UniProt P55084) | inactive: -0.238
12 | HADH isoform 2 (UniProt Q16836) | inactive: -0.011
13 | GSTO1 (UniProt P78417) | inactive: -0.024
14 | GSTK1 (UniProt Q9Y2Q3) | inactive: -0.042
15 | HBZ, A0A494C057 | inactive: -0.047
16 | HBA1 (UniProt P69905) | inactive: -0.003
17 | GTF2B (UniProt Q00403) | inactive: -0.036
18 | GTF3A (UniProt Q92664) | inactive: 0.002
19 | GSN (UniProt P06396) | inactive: -0.047

Row | Target | log2 fold change
20 | HELB (UniProt Q8NG08) | inactive: 0.008
21 | GTF2E1 (UniProt P29083) | inactive: -0.086
22 | GTF2H2 (UniProt Q13888) | inactive: 0.033
23 | H1-5 (UniProt P16401) | inactive: 0.138
24 | HBD (UniProt P02042) | inactive: -0.073
25 | GTF3C5 isoform 3 (UniProt Q9Y5Q8) | inactive: -0.097
26 | HBG2 (UniProt P69892) | inactive: 0.007
27 | GYPC (UniProt P04921) | inactive: -0.157
28 | GTF2E2 (UniProt P29084) | inactive: -0.009
29 | HFM1 (UniProt A2PYH4) | inactive: 0.011
30 | HAT1 (UniProt O14929) | inactive: 0.009
31 | HECTD3 (UniProt Q5T447) | inactive: -0.015
32 | HELLS (UniProt Q9NRZ9) | inactive: 0.054
33 | GSPT1 isoform 3 (UniProt P15170) | inactive: -0.023
34 | HEXB (UniProt P07686) | inactive: 0.028
35 | HAUS1 (UniProt Q96CS2) | inactive: 0.052
36 | H1-2 (UniProt P16403) | inactive: 0.139
37 | GSR (UniProt P00390) | inactive: 0.006

compound: CC1=C(SC2=C1C(=N[C@H](C3=NN=C(N32)C)CC(=O)N)C4=CC=C(C=C4)Cl)C; test: as above
Method in brief: as §1

Row | Target | log2 fold change
38 | HADHA (UniProt P40939) | inactive: 0.254
39 | HDAC2 (UniProt Q92769) | inactive: 0.042
40 | GTPBP4 (UniProt Q9BZE4) | inactive: -0.207
41 | HAGH (UniProt Q16775) | inactive: 0.043
42 | GTPBP1 (UniProt O00178) | inactive: 0.033
43 | HCCS (UniProt P53701) | inactive: -0.001
44 | HEBP1 (UniProt Q9NRV9) | inactive: 0.017
45 | HERC4 (UniProt Q5GLZ8) | inactive: 0.082
46 | HEATR5B (UniProt Q9P2D3) | inactive: -0.015
47 | HADHB (UniProt P55084) | inactive: 0.235
48 | HADH isoform 2 (UniProt Q16836) | inactive: -0.003
49 | GSTO1 (UniProt P78417) | inactive: 0.028
50 | GSTK1 (UniProt Q9Y2Q3) | inactive: 0.148
51 | HBA1 (UniProt P69905) | inactive: 0.163
52 | GTF2B (UniProt Q00403) | inactive: 0.007
53 | GTF3A (UniProt Q92664) | inactive: -0.001
54 | GSN (UniProt P06396) | inactive: -0.031

Row | Target | log2 fold change
55 | HELB (UniProt Q8NG08) | inactive: 0.008
56 | GTF2E1 (UniProt P29083) | inactive: 0.089
57 | GTF2H2 (UniProt Q13888) | inactive: -0.013
58 | H1-5 (UniProt P16401) | inactive: -0.354
59 | HBD (UniProt P02042) | inactive: 0.119
60 | GTF3C5 isoform 3 (UniProt Q9Y5Q8) | inactive: -0.082
61 | HBG2 (UniProt P69892) | inactive: 0.094
62 | GYPC (UniProt P04921) | inactive: -0.01
63 | GTF2E2 (UniProt P29084) | inactive: 0.043
64 | HAT1 (UniProt O14929) | inactive: -0.005
65 | HECTD3 (UniProt Q5T447) | inactive: 0.009
66 | GSPT1 isoform 3 (UniProt P15170) | inactive: 0.009
67 | HEXB (UniProt P07686) | inactive: 0.005
68 | HAUS1 (UniProt Q96CS2) | inactive: -0.065
69 | H1-2 (UniProt P16403) | inactive: -0.317
70 | GSR (UniProt P00390) | inactive: 0.044

compound: CC1=C2C(=CC=C1)N=C(N(C2=O)C3=CC=CC=C3C)CN4C=NC5=C(N=CN=C54)N; test: as above
Method in brief: as §1

Row | Target | log2 fold change
71 | HADHA (UniProt P40939) | inactive: 0.214
72 | HDAC2 (UniProt Q92769) | inactive: 0.08
73 | GTPBP4 (UniProt Q9BZE4) | inactive: -0.212
74 | HAGH (UniProt Q16775) | inactive: 0.016
75 | GTPBP1 (UniProt O00178) | inactive: 0.007
76 | HCCS (UniProt P53701) | inactive: 0.049
77 | HEBP1 (UniProt Q9NRV9) | inactive: 0.063
78 | HERC4 (UniProt Q5GLZ8) | inactive: 0.035
79 | HEATR5B (UniProt Q9P2D3) | inactive: 0.052
80 | HADHB (UniProt P55084) | inactive: 0.2
81 | HADH isoform 2 (UniProt Q16836) | inactive: -0.017
82 | GSTO1 (UniProt P78417) | inactive: -0.002
83 | GSTK1 (UniProt Q9Y2Q3) | inactive: 0.147
84 | HBA1 (UniProt P69905) | inactive: 0.005
85 | GTF2B (UniProt Q00403) | inactive: 0.154
86 | GTF3A (UniProt Q92664) | inactive: 0.08
87 | GSN (UniProt P06396) | inactive: 0.08

Row | Target | log2 fold change
88 | HELB (UniProt Q8NG08) | inactive: -0.015
89 | GTF2E1 (UniProt P29083) | inactive: 0.136
90 | GTF2H2 (UniProt Q13888) | inactive: 0.047
91 | H1-5 (UniProt P16401) | inactive: -0.261
92 | HBD (UniProt P02042) | inactive: 0.08
93 | GTF3C5 isoform 3 (UniProt Q9Y5Q8) | inactive: 0.103
94 | HBG2 (UniProt P69892) | inactive: -0.008
95 | GYPC (UniProt P04921) | inactive: 0.051
96 | GTF2E2 (UniProt P29084) | inactive: 0.126
97 | HAT1 (UniProt O14929) | inactive: 0.007
98 | HECTD3 (UniProt Q5T447) | inactive: 0
99 | GSPT1 isoform 3 (UniProt P15170) | inactive: 0.08
100 | HEXB (UniProt P07686) | inactive: 0.064
101 | HAUS1 (UniProt Q96CS2) | inactive: 0.071
102 | H1-2 (UniProt P16403) | inactive: -0.252
103 | GSR (UniProt P00390) | inactive: 0.034

From the supplement of paper PMC10849652
